Results as given in US20140363441A1 (priority 2013, published 2014).
No constants are given. Whether binding was seen depends on the method and setting. Some entries that bind do so weakly or less than the wild type.

Sequences of proteins named here, by UniProt entry; tags and fusion partners are left off.
UniProt P06821: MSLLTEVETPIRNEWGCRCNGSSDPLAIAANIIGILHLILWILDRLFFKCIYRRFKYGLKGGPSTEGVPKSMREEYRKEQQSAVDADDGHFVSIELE

Assays:
[1] = biological target: influenza A/Puerto Rico/8/34 (PR8) virus particles (M2 protein on the virion) (influenza A virus H1N1 A/Puerto Rico/8/34) (UniProt P06821); experiment: ELISA on PR8 virus, crude supernatant
[2] = biological target: influenza A/Puerto Rico/8/34 (PR8) virus particles (M2 protein on the virion) (influenza A virus H1N1 A/Puerto Rico/8/34) (UniProt P06821); experiment: ELISA on coated UV-inactivated A/PR/8/34 virus
[3] = biological target: influenza A/Puerto Rico/8/34 (PR8) virus particles (M2 protein on the virion) (influenza A virus H1N1 A/Puerto Rico/8/34) (UniProt P06821); experiment: ELISA on purified A/Puerto Rico/8/34 virus coated at 10 µg/ml
[4] = biological target: influenza A/Puerto Rico/8/34 (PR8) virus particles (M2 protein on the virion) (influenza A virus H1N1 A/Puerto Rico/8/34) (UniProt P06821); experiment: ELISA on virus, crude supernatant
[5] = biological target: influenza A/Puerto Rico/8/34 (PR8) virus particles (M2 protein on the virion) (influenza A virus H1N1 A/Puerto Rico/8/34) (UniProt P06821); experiment: ELISA on A/Puerto Rico/8/34 virus

Measured: binding

B1: 23K12 (TCN-031) (antibody, V domains shown)
VH: EVQLVESGGGLVQPGGSLRISCAASGFTVSSNYMSWVRQAPGKGLEWVSVIYSGGSTYYADSVKGRFSFSRDNSKNTVFLQMNSLRAEDTAVYYCARCLSRMRGYGLDVWGQGTTVTVS
VL: DIQMTQSPSSLSASVGDRVTITCRTSQSISSYLNWYQQKPGKAPKLLIYAASSLQSGVPSRFSGSGSGTDFTLTISGLQPEDFATYYCQQSYSMPAFGQGTKLEIK
binds: all assays above
